In US6492515B2, “4,4-disubstituted-1, 4-dihydro-2H-3, 1-benzoxazin-2-ones useful as HIV reverse transcriptase inhibitors and intermediates and processes for making the same” (Bristol-Myers Squibb Pharma Company, priority 1996, dated 2002):
≈ marks a conversion by molar mass, not a printed value.

System: HIV-1 (RF)
Test: HIV RNA assay: microplate based compound evaluation in HIV-1 infected MT-2 cells
Type: cell-based
Settings: Human immunodeficiency virus 1, MT2, 72 h; HIV-1 (RF) infected MT-2 cells, 3 days; virus dilutions selected to give this value; read-out: IC90 value (concentration of compound required to reduce the HIV RNA level by 90%)
Protocol: DNA Plasmids and in vitro RNA Transcripts
Plasmid pDAB 72 containing both gag and pol sequences of BH10 (bp 113-1816) cloned into PTZ 19R was prepared according to Erickson-Viitanen et al. AIDS Research and Human Retroviruses 1989, 5, 577. The plasmid was linearized with Bam HI prior to the generation of in vitro RNA transcripts using the Riboprobe Gemini system II kit (Promega) with T7 RNA polymerase. Synthesized RNA was purified by treatment with RNase free DNAse (Promega), phenol-chloroform extraction, and ethanol precipitation. RNA transcripts were dissolved in water, and stored at −70° C. The concentration of RNA was determined from the A260.
Biotinylated capture probes were purified by HPLC after synthesis on an Applied Biosystems (Foster City, Calif.) DNA synthesizer by addition of biotin to the 5′ terminal end of the oligonucleotide, using the biotin-phosphoramidite reagent of Cocuzza, Tet. Lett. 1989, 30, 6287. […]
MT-2 and MT-4 cells were maintained in RPMI 1640 supplemented with 5% fetal calf serum (FCS) for MT-2 cells or 10% FCS for MT-4 cells, 2 mM L-glutamine and 50 μg/mL gentamycin, all from Gibco. […] Infectious titers of HIV-1 (RF) stocks were 1-3×10^7 PFU (plaque forming units)/mL as measured by plaque assay on MT-2 cells (see below). […]

SMILES: Nc1ccn([C@H]2CC[C@@H](CO)O2)c(=O)n1 [ddC, 2′,3′-dideoxycytidine]
- IC90: 0.2 µg/mL (≈ 0.947 µM)
